Our source for the binding values is publication PMC6053202.

Sequences of proteins named here, by UniProt entry; tags and fusion partners are left off. Residues count along the entry.
UniProt P14625, residues 22-803: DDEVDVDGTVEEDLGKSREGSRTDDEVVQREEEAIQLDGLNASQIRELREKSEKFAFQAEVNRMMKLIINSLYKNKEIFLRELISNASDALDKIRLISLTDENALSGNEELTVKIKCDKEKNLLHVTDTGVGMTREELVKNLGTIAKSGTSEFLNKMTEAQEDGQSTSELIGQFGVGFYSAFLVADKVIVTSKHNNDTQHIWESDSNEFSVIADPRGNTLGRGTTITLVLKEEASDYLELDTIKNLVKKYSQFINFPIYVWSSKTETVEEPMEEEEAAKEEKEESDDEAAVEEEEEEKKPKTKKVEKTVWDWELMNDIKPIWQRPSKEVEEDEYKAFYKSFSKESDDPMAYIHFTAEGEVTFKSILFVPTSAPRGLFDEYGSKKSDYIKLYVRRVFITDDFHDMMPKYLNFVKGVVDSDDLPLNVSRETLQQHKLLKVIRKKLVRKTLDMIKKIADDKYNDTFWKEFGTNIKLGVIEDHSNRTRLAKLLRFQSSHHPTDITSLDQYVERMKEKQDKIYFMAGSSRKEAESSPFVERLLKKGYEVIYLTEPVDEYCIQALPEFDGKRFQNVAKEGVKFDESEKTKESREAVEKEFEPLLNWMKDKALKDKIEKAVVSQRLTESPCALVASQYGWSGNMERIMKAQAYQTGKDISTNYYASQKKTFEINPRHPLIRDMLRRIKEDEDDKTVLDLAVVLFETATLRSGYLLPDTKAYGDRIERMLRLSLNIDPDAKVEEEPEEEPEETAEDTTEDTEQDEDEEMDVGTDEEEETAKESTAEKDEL

In assay [1] the target is T1, GFP-tagged WT TLR9 (mouse) (UniProt Q9EQU3).
T1 sequence: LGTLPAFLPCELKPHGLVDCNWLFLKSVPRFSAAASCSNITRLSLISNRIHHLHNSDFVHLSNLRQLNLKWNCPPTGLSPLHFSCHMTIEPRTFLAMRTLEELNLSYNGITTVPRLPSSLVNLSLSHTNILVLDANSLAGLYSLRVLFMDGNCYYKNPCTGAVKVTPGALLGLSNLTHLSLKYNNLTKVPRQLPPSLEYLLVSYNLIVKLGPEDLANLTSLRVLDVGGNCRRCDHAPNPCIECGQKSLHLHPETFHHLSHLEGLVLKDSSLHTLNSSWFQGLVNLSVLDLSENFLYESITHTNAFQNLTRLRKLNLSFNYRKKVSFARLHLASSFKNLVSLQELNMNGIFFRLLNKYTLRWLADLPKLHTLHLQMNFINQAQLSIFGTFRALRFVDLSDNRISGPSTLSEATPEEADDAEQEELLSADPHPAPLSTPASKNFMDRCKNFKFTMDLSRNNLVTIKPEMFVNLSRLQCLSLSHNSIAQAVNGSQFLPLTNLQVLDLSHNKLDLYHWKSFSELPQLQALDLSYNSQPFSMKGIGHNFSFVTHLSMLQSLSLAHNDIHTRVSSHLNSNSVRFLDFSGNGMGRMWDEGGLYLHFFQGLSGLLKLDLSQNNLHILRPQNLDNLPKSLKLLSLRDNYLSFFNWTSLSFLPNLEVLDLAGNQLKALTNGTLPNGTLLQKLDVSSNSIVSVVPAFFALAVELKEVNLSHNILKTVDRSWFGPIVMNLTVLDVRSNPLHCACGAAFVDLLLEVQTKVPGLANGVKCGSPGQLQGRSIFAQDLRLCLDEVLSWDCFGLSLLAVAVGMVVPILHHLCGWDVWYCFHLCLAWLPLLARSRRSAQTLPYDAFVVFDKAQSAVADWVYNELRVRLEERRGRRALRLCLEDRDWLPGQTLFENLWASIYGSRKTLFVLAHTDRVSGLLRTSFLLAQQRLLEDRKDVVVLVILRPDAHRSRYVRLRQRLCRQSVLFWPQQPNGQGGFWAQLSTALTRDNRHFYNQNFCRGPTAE
The assay is described as follows: co-IP; 293T cells co-transfected with FLAG-UNC93B1 and GFP-tagged WT or Y870A TLR9 (4 ug each), 1% NP40 lysates; GFP-Trap agarose beads, 2 h at 4 C; immunoblot for GFP, FLAG and GRP94. Background: Immunoblotting shows a protein as a band on a membrane.

Assay [2] deals with T2, GFP-tagged TLR9 Y870A (mouse) (UniProt Q9EQU3).
T2 sequence: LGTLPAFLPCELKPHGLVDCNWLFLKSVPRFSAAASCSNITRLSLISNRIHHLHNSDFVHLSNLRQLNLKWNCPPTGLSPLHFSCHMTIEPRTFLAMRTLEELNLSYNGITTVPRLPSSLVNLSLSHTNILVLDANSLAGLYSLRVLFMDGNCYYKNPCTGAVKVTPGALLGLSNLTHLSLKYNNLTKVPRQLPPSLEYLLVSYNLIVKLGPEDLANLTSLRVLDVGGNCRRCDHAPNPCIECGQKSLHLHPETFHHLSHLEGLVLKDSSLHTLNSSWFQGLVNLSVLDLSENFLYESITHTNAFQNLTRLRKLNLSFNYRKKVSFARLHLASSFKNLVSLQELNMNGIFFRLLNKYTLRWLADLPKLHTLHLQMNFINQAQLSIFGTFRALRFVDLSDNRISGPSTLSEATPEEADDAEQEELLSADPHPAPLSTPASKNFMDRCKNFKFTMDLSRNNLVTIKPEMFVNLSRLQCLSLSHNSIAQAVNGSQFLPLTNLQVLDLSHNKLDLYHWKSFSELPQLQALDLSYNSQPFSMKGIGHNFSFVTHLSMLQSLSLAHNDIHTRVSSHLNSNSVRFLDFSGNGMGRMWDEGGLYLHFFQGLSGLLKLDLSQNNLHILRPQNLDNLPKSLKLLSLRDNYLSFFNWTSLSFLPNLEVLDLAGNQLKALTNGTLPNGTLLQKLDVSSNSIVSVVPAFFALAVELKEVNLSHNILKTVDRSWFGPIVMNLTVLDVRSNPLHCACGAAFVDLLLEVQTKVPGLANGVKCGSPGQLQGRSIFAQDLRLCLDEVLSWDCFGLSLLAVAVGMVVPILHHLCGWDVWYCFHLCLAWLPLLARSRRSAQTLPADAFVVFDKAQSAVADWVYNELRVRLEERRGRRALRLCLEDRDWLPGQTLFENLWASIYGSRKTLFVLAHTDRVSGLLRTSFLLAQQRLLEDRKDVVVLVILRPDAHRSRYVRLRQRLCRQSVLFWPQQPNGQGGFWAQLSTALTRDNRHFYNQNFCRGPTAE
The description is as above.

Assay [3] addresses T3, HA-tagged WT TLR9 (mouse) (UniProt Q9EQU3).
T3 sequence: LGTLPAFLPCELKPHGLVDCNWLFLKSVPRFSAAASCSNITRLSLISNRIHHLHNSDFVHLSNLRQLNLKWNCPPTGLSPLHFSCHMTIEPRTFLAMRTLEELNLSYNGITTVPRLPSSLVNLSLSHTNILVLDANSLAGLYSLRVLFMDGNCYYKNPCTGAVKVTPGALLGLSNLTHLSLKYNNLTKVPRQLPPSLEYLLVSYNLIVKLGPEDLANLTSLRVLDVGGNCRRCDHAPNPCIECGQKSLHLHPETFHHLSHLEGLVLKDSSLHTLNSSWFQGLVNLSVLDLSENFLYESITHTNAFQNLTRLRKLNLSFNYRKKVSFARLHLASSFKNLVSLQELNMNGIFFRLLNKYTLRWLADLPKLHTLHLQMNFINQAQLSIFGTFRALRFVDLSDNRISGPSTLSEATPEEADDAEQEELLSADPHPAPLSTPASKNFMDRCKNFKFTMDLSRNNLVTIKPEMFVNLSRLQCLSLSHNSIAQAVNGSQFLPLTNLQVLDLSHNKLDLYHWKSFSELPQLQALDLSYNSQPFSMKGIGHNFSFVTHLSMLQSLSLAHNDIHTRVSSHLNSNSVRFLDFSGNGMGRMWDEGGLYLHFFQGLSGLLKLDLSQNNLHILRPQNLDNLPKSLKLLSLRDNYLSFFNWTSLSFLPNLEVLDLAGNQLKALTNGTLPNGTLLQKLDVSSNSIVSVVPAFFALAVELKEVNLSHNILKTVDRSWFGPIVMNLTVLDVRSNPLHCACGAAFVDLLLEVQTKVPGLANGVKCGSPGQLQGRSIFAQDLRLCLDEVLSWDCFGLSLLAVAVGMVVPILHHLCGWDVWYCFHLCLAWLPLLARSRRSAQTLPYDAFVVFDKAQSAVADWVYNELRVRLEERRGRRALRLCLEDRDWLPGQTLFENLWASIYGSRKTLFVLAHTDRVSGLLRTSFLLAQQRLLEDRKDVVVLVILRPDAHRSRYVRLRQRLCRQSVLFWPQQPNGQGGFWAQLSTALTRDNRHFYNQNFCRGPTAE
The assay is described as follows: co-IP; 293T cells co-transfected with HA- and GFP-tagged TLR9 (4 ug each construct), lysed after 24 h in 1% NP40 buffer; anti-HA antibody and rabbit IgG beads, 4 C; immunoblot for HA and GFP.

Assay [4] addresses T4, HA-tagged TLR9 Y870A (mouse) (UniProt Q9EQU3).
T4 sequence: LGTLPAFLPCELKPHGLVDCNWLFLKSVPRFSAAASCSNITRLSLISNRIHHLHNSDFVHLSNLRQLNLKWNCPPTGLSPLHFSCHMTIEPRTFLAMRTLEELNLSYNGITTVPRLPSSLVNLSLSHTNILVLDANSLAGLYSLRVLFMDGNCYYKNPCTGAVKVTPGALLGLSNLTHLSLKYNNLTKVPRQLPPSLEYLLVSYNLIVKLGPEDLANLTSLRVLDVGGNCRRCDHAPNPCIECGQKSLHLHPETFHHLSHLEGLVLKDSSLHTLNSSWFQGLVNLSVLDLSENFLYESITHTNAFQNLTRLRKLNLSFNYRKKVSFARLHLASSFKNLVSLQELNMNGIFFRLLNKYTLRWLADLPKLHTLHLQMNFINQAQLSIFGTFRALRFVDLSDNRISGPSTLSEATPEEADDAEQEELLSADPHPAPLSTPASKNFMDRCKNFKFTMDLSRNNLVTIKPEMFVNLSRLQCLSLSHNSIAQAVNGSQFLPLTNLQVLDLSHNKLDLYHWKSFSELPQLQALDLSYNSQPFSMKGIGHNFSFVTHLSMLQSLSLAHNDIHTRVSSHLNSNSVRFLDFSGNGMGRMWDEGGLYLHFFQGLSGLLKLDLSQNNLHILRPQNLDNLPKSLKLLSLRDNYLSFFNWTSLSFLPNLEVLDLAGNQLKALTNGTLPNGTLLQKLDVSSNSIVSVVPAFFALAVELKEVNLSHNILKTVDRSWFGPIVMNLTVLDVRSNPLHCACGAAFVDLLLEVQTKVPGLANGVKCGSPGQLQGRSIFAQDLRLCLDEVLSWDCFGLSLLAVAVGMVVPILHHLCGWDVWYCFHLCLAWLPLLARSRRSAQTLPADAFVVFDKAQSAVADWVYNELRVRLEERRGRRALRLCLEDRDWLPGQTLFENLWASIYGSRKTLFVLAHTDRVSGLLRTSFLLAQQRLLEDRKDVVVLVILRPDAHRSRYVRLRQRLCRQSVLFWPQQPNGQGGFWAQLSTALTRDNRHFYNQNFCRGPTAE
Described as above.

No constants are given. Whether binding was seen depends on the method and setting. Binding seen in cells or lysates may run through a third protein. Some entries that bind do so weakly or less than the wild type. Tags and fused reporters may be left off the sequences shown.

Consider “endogenous GRP94 (from UniProt P14625 22-803)”, for which the binding entry in assay [1] and in assay [2] was “binds” in each case.

B1: GFP-tagged TLR9 Y870A (receptor, UniProt Q9EQU3 26-1032)
chain: LGTLPAFLPCELKPHGLVDCNWLFLKSVPRFSAAASCSNITRLSLISNRIHHLHNSDFVHLSNLRQLNLKWNCPPTGLSPLHFSCHMTIEPRTFLAMRTLEELNLSYNGITTVPRLPSSLVNLSLSHTNILVLDANSLAGLYSLRVLFMDGNCYYKNPCTGAVKVTPGALLGLSNLTHLSLKYNNLTKVPRQLPPSLEYLLVSYNLIVKLGPEDLANLTSLRVLDVGGNCRRCDHAPNPCIECGQKSLHLHPETFHHLSHLEGLVLKDSSLHTLNSSWFQGLVNLSVLDLSENFLYESITHTNAFQNLTRLRKLNLSFNYRKKVSFARLHLASSFKNLVSLQELNMNGIFFRLLNKYTLRWLADLPKLHTLHLQMNFINQAQLSIFGTFRALRFVDLSDNRISGPSTLSEATPEEADDAEQEELLSADPHPAPLSTPASKNFMDRCKNFKFTMDLSRNNLVTIKPEMFVNLSRLQCLSLSHNSIAQAVNGSQFLPLTNLQVLDLSHNKLDLYHWKSFSELPQLQALDLSYNSQPFSMKGIGHNFSFVTHLSMLQSLSLAHNDIHTRVSSHLNSNSVRFLDFSGNGMGRMWDEGGLYLHFFQGLSGLLKLDLSQNNLHILRPQNLDNLPKSLKLLSLRDNYLSFFNWTSLSFLPNLEVLDLAGNQLKALTNGTLPNGTLLQKLDVSSNSIVSVVPAFFALAVELKEVNLSHNILKTVDRSWFGPIVMNLTVLDVRSNPLHCACGAAFVDLLLEVQTKVPGLANGVKCGSPGQLQGRSIFAQDLRLCLDEVLSWDCFGLSLLAVAVGMVVPILHHLCGWDVWYCFHLCLAWLPLLARSRRSAQTLPADAFVVFDKAQSAVADWVYNELRVRLEERRGRRALRLCLEDRDWLPGQTLFENLWASIYGSRKTLFVLAHTDRVSGLLRTSFLLAQQRLLEDRKDVVVLVILRPDAHRSRYVRLRQRLCRQSVLFWPQQPNGQGGFWAQLSTALTRDNRHFYNQNFCRGPTAE
As to B1, the binding result in assay [3] and in assay [4] was “binds” in each case.

B2: FLAG-tagged UNC93B1 (protein, UniProt Q8VCW4 1-598)
chain: MEVEPPLYPVAGAAGPQGDEDRHGVPDGPEAPLDELVGAYPNYNEEEEERRYYRRKRLGVVKNVLAASTGVTLTYGVYLGLLQMQLILHYDETYREVKYGNMGLPDIDSKMLMGINVTPIAALLYTPVLIRFFGTKWMMFLAVGIYALFVSTNYWERYYTLVPSAVALGMAIVPLWASMGNYITRMSQKYYEYSHYKEQDEQGPQQRPPRGSHAPYLLVFQAIFYSFFHLSFACAQLPMIYFLNNYLYDLNHTLINVQSCGTKSQGILNGFNKTVLRTLPRSKNLIVVESVLMAVAFLAMLMVLGLCGAAYRPTEEIDLRSVGWGNIFQLPFKHVRDFRLRHLVPFFIYSGFEVLFACTGFALGYGVCSMGLERLAYLLIAYSLGASASSVLGLLGLWLPRSVPLVAGAGLHLLLTLSLFFWAPAPRVLQHSWIFYFVAALWGVGSALNKTGLSTLLGILYEDKERQDFIFTIYHWWQAVAIFVVYLGSSLPMKAKLAVLLVTLVAAAASYLWMEQKLQQGLVPRQPRIPKPQHKVRGYRYLEEDNSDESDMEGEQGQGDCAEDEAPQAGPLGAEPAGPCRKPCPYEQALGGDGPEEQ
Take B2: the binding result in assay [1] and in assay [2] was “binds” in each case.
